# Settings: aqueous solution in commercially available concentrations
smiles,measurement,value
CCN(CC)CC(=O)Nc1c(C)cccc1C [Lidocaine],time required for systemic absorption,2 to 4 h

# From patent US11241412B2 (priority 2015, dated 2022)
